Test results published in PMC9243095.

Sequences of proteins named here, by UniProt entry; tags and fusion partners are left off. A change or cut given only in a name is not applied to a line headed by its entry.
UniProt Q9T0D3: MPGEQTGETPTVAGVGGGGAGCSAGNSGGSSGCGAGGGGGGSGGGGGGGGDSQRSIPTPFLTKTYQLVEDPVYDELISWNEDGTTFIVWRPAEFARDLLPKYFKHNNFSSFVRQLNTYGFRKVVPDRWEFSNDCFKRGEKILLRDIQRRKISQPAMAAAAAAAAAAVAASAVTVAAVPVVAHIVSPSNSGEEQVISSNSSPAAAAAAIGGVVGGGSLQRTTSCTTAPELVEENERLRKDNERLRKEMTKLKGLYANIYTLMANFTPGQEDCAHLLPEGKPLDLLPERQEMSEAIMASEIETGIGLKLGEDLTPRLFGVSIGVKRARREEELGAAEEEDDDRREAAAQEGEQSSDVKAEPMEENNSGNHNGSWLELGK

Target: MBP-HsfB2bDBD (Arabidopsis thaliana) (UniProt Q9T0D3)
Test: EMSA
Details: 5 uM protein, 100 nM probe; 10 mM Tris-HCl pH 7.5, 50 mM NaCl, 1 mM EDTA, 5% glycerol, 5 mM DTT, room temperature; 6% polyacrylamide gel, 0.5X TBE; recombinant protein; protein details: N-terminal MBP (pMAL-c2); label: 5'-Cy5 on strand 1

Row | Sequence | binding result
1 | TTTCCTCCTTAAAAACATTTAAAAAAAACAAAAGGAGAGA (double strand) [mHSE probe] | no binding
2 | TTTCCTCCTTAGAAACATCTAGAAAAAACAAAAGGAGAGA (double strand) [HSE (HSEVIN3) probe] | binds

For at least one entry, the source does not settle the construct or the ends of the probe. A negative result means that nothing was seen under these conditions.
